Experimental data reported in PubChem BioAssay AID1487 (National Center for Advancing Translational Sciences (NCATS), 2009).
The other results are listed elsewhere or left out. Shown are side measurements of this screen, not its main read-out; they come without a call. The list favours compounds with an active or inconclusive main result. Potencies come from curve fits of mixed quality, noted in brackets.

Assay: qHTS Assay for Modulators of Lamin A Splicing
Conditions: HeLa LMNA splicing GFP/RFP minigene ratio, 48 h
Outline: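 Read-out is the ratio of GFP to DsRed2 object intensity, acquired by 488 nm laser-scanning cytometry on HeLa lamin A-EGFP minigene reporter cells. Compound incubation 48 hrs at 37 °C in Opti-MEM with 2% FBS; DMSO 0.5% final.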

[1] = measured here: GFP splicing reporter channel
[2] = measured here: RFP viability control channel

| SMILES | AC50 [1] | AC50 [2] |
| --- | --- | --- |
| CC(=O)c1ccccc1OCCOCCOc1ccccc1C(C)=O | 11.2 µM [rising, partial curve] | 20 µM [rising, partial curve] |
| Cc1ccccc1N(C(=O)c1csnn1)C(C(=O)NC(C)(C)C)c1ccncc1 (stereo not drawn) | 6.31 µM [falling, partial curve, poor fit] |  |
| CCOC(=O)C1=C(c2cccc(F)c2)NC(=S)NC1C (stereo not drawn) |  | 3.16 µM [falling, partial curve, poor fit] |
| O=C(CN1CCCCC1)Nc1cc(Cl)ccc1Oc1ccccc1 | 17.8 µM [rising, partial curve] | 11.2 µM [rising, partial curve] |
| Nc1nnc(CSCc2ccc(Cl)cc2)s1 | 22.4 µM [rising, single point] | 31.6 µM [rising, single point] |
| CCOC(=O)N1CCC(NC(=O)Cn2c3c(c(-c4ccccc4Cl)cc2=O)CCC3)CC1 |  | 22.4 µM [rising, single point] |
| CNc1nc(-c2ccc(N(C)C)cc2)nc2ccccc12 | 35.5 µM [falling, single point] | 35.5 µM [falling, single point] |
| COc1ccc(C2=CC(=O)C=CC2=O)cc1 |  | 15.8 µM [falling, single point] |
| CCCn1c(=O)c(C(=O)NCc2ccncc2)c(O)c2ccccc21 | 14.1 µM [rising, single point] | 15.8 µM [rising, single point] |
| CCC(=O)N1c2ccc(S(=O)(=O)CCC(=O)NCc3cccs3)cc2CC1C (stereo not drawn) | 11.2 µM [falling, single point] |  |
| COc1ccc(-n2nnnc2SCC(=O)Nc2ccccc2N2CCOCC2)cc1 | 0.126 µM [falling, full curve, poor fit] | 0.316 µM [falling, partial curve, poor fit] |
| COc1ccc(-c2nc3scc(CCNS(=O)(=O)c4ccc(Oc5ccccc5)cc4)n3n2)cc1 |  | 0.178 µM [falling, full curve, poor fit] |
| CNC(=O)NC(=O)C(C)Oc1ccccc1F (stereo not drawn) | 0.01 µM [rising, full curve, poor fit] |  |
| O=C(Nc1scc(-c2cccs2)c1C(=O)O)c1cccs1 | 12.6 µM [rising, single point] | 11.2 µM [rising, partial curve] |
| CCCNc1ncnc2sc(C)c(C)c12 | 12.6 µM [rising, partial curve] | 25.1 µM [rising, single point] |
| O=C1CC(N(CCc2ccccc2)C(=S)Nc2ccccc2)C(=O)N1c1ccccc1 (stereo not drawn) |  | 35.5 µM [rising, single point] |
| COc1cc(C(=O)N2CCN(c3cc(Cl)ccc3Cl)CC2)cc(OC)c1OC |  | 1.26 µM [rising, full curve, poor fit] |
| CC(=O)Nc1cccc(OCc2ccc(S(=O)(=O)Cc3ccccc3)cc2)c1 | 2 µM [rising, partial curve, poor fit] | 12.6 µM [rising, partial curve] |
| CCN(C(=O)COC(=O)c1n[nH]c2ccccc12)C1CCS(=O)(=O)C1 (stereo not drawn) | 0.316 µM [rising, partial curve, poor fit] | 0.251 µM [rising, partial curve] |
| Nc1cc2nn(-c3ccccc3)nc2cc1Cl |  | 25.1 µM [falling, partial curve] |
| ON=Cc1cccn1-c1ccccc1 | 35.5 µM [rising, single point] |  |
| CCOC(=O)c1ccc(N2C(=O)C(CC(=O)NC)N(CCc3ccc(OC)c(OC)c3)C2=S)cc1 (stereo not drawn) | 35.5 µM [falling, single point] | 17.8 µM [falling, single point] |
| O=c1[nH]c2ccc(S(=O)(=O)N3CCN(c4ccccc4F)CC3)cc2s1 | 31.6 µM [rising, single point] | 22.4 µM [rising, single point] |
| CC(Oc1ccc(Cl)cc1Cl)C(=O)NCc1ccncc1 (stereo not drawn) |  | 11.2 µM [rising, partial curve] |
| CCOC(=O)c1c(C)[nH]c(C2=NNC(=Nc3ccccc3)SC2)c1C |  | 35.5 µM [rising, single point] |
| Cc1ccc(N/C(N)=N/c2nc(C(F)(F)F)cc(C(F)(F)F)n2)cc1 | 0.251 µM [rising, full curve, poor fit] |  |
| Cc1cc2c(cc1NC(=O)c1ccccc1Cl)n(C)c(=O)c(=O)n2C | 0.0501 µM [falling, full curve, poor fit] | 3.98 µM [falling, partial curve, poor fit] |
| Cc1ccn2c(=O)cc(CSc3nnc(C)s3)nc2c1 |  | 1.58 µM [rising, full curve, poor fit] |

| SMILES | AC50 [1] | AC50 [2] |
| --- | --- | --- |
| CCCCSc1nnc(CSc2nc3nc(C)cc(C)n3n2)o1 |  | 4.47 µM [rising, full curve, poor fit] |
| O=C(c1cccs1)N1N=C(c2ccc(O)cc2)CC1c1ccccc1 (stereo not drawn) | 35.5 µM [rising, single point] | 35.5 µM [rising, single point] |
| Cc1ccc(C)c(N2CCN(CCCNC(=O)c3cnn(-c4ccccc4)c3C3CCN(C(=O)OC(C)(C)C)CC3)CC2)c1 | 17.8 µM [falling, partial curve] | 17.8 µM [falling, partial curve] |
| CCN(CC)S(=O)(=O)c1ccc2oc(C(=O)N3CCCCCC3)c(C)c2c1 |  | 15.8 µM [rising, single point] |
| COc1ccc(C2C(CN3CCOCC3)C(=O)N2c2ccccc2)cc1 (stereo not drawn) |  | 3.98 µM [rising, partial curve, poor fit] |
| CCOC(=O)c1ccc(NC(=S)NCCc2ccccc2F)cc1 |  | 0.0794 µM [falling, full curve, poor fit] |
| CCNC(=O)CSc1nc2ccccc2c(=O)n1CCCOC(C)C |  | 31.6 µM [rising, single point] |
| O=C(NCc1ccco1)c1cc2sccc2n1Cc1ccccc1 |  | 35.5 µM [rising, single point] |
| COc1ccc(COC(=O)c2ccc(N3CCCC3=O)cc2)cc1F |  | 11.2 µM [rising, partial curve, poor fit] |
| COc1ccc(Nc2c(-c3ccc(OC)cc3)nc3cnccn23)cc1 | 6.31 µM [falling, full curve] | 3.98 µM [falling, full curve] |
| Nc1nc(-c2ccccc2)c(N=Nc2ccc(Cl)cc2)s1 |  | 0.0282 µM [rising, full curve, poor fit] |
| N=C1SC(c2ccccc2)C(=O)N1c1ncc(Cc2ccccc2)s1 (stereo not drawn) | 20 µM [rising, partial curve, poor fit] | 14.1 µM [rising, partial curve] |
| c1ccc2c(Nc3ccncc3)nc(-c3ccc4c(c3)OCO4)nc2c1 | 22.4 µM [falling, partial curve] | 35.5 µM [falling, single point] |
| CN(C)CCOC(=O)C1(c2ccccc2)CCOCC1 |  | 0.0794 µM [falling, full curve, poor fit] |
| Cc1ccc(-n2c(N)c(C(=O)Nc3c(C)n(C)n(-c4ccccc4)c3=O)c3nc4ccccc4nc32)cc1C | 35.5 µM [falling, single point] | 35.5 µM [falling, single point] |
| COC(=O)C(C)NC(=O)C1CCCN1S(=O)(=O)c1cc(C)c(Cl)cc1C (stereo not drawn) | 22.4 µM [rising, single point] |  |
| FC(F)c1nnc2ccc(Cl)nn12 | 6.31 µM [falling, partial curve, poor fit] |  |
| COc1ccc(Nc2ncnc3c2cnn3Cc2ccc(C)cc2)cc1 |  | 12.6 µM [rising, single point] |
| CCOC(=O)N1CCN(c2ncnc3c2cnn3-c2ccc(Cl)cc2)CC1 |  | 10 µM [rising, partial curve] |
| Cc1ccc2nc(NC(=O)C3CCCN(S(=O)(=O)c4cnc[nH]4)C3)sc2c1 (stereo not drawn) | 31.6 µM [rising, single point] | 35.5 µM [rising, single point] |
| COc1cccc(OCC(=O)NC2CC(=O)N(c3cccc(OC)c3)C2)c1 (stereo not drawn) | 35.5 µM [rising, partial curve, poor fit] | 25.1 µM [rising, single point] |
| CN1C(=O)/C(=N\OC(=O)c2cccc3ccccc23)c2ccccc21 | 35.5 µM [falling, single point] | 35.5 µM [falling, single point] |
| NC(=O)N1c2ccccc2CC(=O)c2ccccc21 | 2.51 µM [rising, partial curve, poor fit] |  |
| COCCNC(=S)N(CCc1c(C)[nH]c2ccc(C)cc12)Cc1cc(OC)c(OC)c(OC)c1 | 10 µM [rising, partial curve] | 11.2 µM [rising, partial curve] |
| CCN1CCN(CC(=O)c2cc(Cl)ccc2Cl)CC1 |  | 4.47 µM [falling, full curve, poor fit] |
| O=C(OCCOc1ccc(Br)cc1)c1ccc(Cl)nc1 |  | 0.00316 µM [falling, full curve, poor fit] |
| Cc1cc(C)c(NC(=O)CS(=O)CC(=O)N2CCN(c3ccc(F)cc3)CC2)c(C)c1 (stereo not drawn) |  | 35.5 µM [rising, single point] |

Reprinted at random: two records from the list.

| SMILES | AC50 [1] | AC50 [2] |
| --- | --- | --- |
| CCOC(=O)N1CCN(c2ncnc3c2cnn3-c2ccc(Cl)cc2)CC1 |  | 10 µM [rising, partial curve] |
| COC(=O)C(C)NC(=O)C1CCCN1S(=O)(=O)c1cc(C)c(Cl)cc1C (stereo not drawn) | 22.4 µM [rising, single point] |  |
